Measurements as given in patent US20220073598A1 (KYMAB, published 2022).
These are yes or no findings as the source states them, for the method shown. Some results given as binding are weak or reduced against the parent protein; the word gives no strength.

Protein sequences, listed by entry. Tags and fused reporters are not part of them. Lines headed by an entry give the natural chain unless they say otherwise; changes in a name come on top.
UniProt P22004: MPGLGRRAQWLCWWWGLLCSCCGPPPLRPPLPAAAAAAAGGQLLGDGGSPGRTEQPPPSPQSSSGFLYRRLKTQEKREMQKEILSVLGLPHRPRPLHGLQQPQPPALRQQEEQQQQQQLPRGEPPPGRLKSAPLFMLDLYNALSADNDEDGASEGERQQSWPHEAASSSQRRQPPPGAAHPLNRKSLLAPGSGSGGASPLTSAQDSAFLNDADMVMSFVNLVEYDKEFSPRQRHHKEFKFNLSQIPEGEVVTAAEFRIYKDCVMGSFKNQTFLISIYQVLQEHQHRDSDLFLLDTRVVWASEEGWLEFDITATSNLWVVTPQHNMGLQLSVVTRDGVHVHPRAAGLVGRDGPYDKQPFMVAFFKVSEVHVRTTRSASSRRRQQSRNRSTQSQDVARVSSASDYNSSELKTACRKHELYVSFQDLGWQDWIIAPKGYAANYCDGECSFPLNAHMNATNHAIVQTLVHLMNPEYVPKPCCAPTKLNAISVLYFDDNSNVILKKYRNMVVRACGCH

Legend:
[1] = target: human BMP6 (Peprotech), reduced monomer on SDS-PAGE (human) (UniProt P22004); test: Western blot after reducing SDS-PAGE
[2] = target: recombinant human BMP6 (Peprotech 120-06) (human) (UniProt P22004); test: Western blot after non-reducing SDS-PAGE
[3] = target: T1, BMP6 peptide motif … (human); test: linear peptide microarray, 15-mers overlapping by 14
T1 sequence (peptide): TLVHLMNPEYV

[4] = target: T2, BMP6 peptide motif HLMNPEY (human); test: as above
T2 sequence (peptide): HLMNPEY

B1: Antibody A (antibody, human IgG4 S228P, kappa, V domains shown)
VH: QVQLVQSGAEVKKPGSSVKVSCKASGYTFTSYAMHWVRQAPGQGLEWMGYINPYNDGTKYNENFKGRVTITADESTSTAYMELSSLRSEDTAVYYCARRPFGNAMDIWGQGTLVTVSS
VL: DIQMTQSPSSLSASVGDRVTITCRSSENIYRNLAWYQQKPGKAPKLLIYAATNLADGVPSRFSGSGSGTDFTLTISSLQPEDFATYYCQGIWGTPLTFGGGTKVEIKR
- binding [1]: binds
- binding [2]: binds
- binding [3]: binds

B2: Antibody B (antibody, human IgG1, lambda, V domains shown)
VH: QVQLVESGGGLVKPGGSLRLSCAASGFTFSSYVVHWVRQAPGKGLEWVGRIRLETHGYAAEYAASVKGRFTISRDDSKNTLYLQMNSLKTEDTAVYYCARVERSKSGFDNWGQGTLVTVSS
VL: QSVLTQPPSVSGAPGQRVTISCTGSSSNIGAGYSVHWYQQLPGTAPKLLIYGQSERPSGVPDRFSGSKSGTSASLAITGLQAEDEADYYCQSWDSSQTLVVFGGGTKLTVLG
notes: also called anti-BMP6 Antibody B
- binding [4]: binds
